# Laboratory results as given in article PMC12040169 (PLOS Biology, 2025).
# The other results are listed elsewhere or left out.
# Tested on: T1, CTL2-GFP (C. trachomatis L2/434/Bu, GFP-expressing)
# T1 construct: L2/434/Bu, GFP-expressing
# Design: species or system HeLa; Intracellular C. trachomatis growth in HeLa cells, bulk GFP fluorescence relative to DMSO
# Settings: bulk GFP, single well; 28.5 h, 10 µM; inhibitor
row,SMILES,% of control remaining [%]
1,CN(CC(=O)Nn1cnnc1)S(=O)(=O)c1ccc(Br)cc1 [CBK268597],129.268
2,O=C(Cn1cccc2cc(C3CCCNC3)nc1-2)N1CCCCCC1 (stereo not drawn) [CBK285088],118.793
3,CCOC(=O)C1CCCN(C(=O)CCn2c(=O)oc3cc(Cl)ccc32)C1 (stereo not drawn) [CBK304516],128.937
4,O=C(CCSCc1nc2sc3c(c2c(=O)[nH]1)CCC3)N1CCC1 [CBK304536],152.264
5,COCCCN1C(=O)c2[nH]nc(-c3cc(C)c(C)cc3O)c2C1c1ccc(SC)cc1 (stereo not drawn) [CBK268884],74.1447
6,COc1cccc(CSc2ccc(CN3CCOCC3)cc2F)c1 [CBK174976],112.371
7,O=C(NC1CCS(=O)(=O)C1)c1cc2ccc(OC(F)(F)F)cc2[nH]1 (stereo not drawn) [CBK305754],127.396
8,CC(C)C(=O)N1CCC[C@@H](Cn2nc(-c3cccs3)ccc2=O)C1 [CBK282317],124.101
9,Cc1ccc(C)c(C2C(C(=O)c3ccccc3Cl)=C(O)C(=O)N2c2ccc(CC(=O)O)cc2)c1 (stereo not drawn) [CBK297723],173.715
10,Cc1ccc(NC(=O)C2CC=CCC2C(=O)O)cc1NC(=O)c1ccc(Cl)cc1 (stereo not drawn) [CBK268980],157.463
11,Cc1ccc(NC(=S)NCCc2ccc(S(N)(=O)=O)cc2)c(C)c1 [CBK264870],124.738
12,CCOC(=O)C(CNS(=O)(=O)c1ccc(F)cc1C)Cc1ccccc1 (stereo not drawn) [CBK305427],82.2805
13,CCn1c(SCC(=O)O)nnc1-c1ccco1 [CBK068633],122.176
14,O=C(CSc1ncn[nH]1)Nc1ncccn1 [CBK058488],113.916
15,Cc1cc(O)n(-c2cc(-c3ccccc3)nc(-c3ccccc3)n2)n1 [CBK262014],146.6
16,N=C(N)NS(=O)(=O)c1ccc(N/C=C\C(=O)c2ccncc2)cc1 [CBK264185],109.535
17,CCc1nc2ccc(C(=O)NCCc3c[nH]c4ccccc34)cn2c1N(C)Cc1ccncc1 [CBK145636],129.953
18,Cc1nn(CC(=O)N2CCCCCC2)c(=O)c2cc3ccsc3n12 [CBK284060],131.624
19,Cc1nn(CC(=O)N2CCCC(C)C2)c(=O)c2cc3occc3n12 (stereo not drawn) [CBK283623],103.203
20,O=C(CN1CCC(c2ccccc2F)CC1)N1CCCCC1 [CBK283577],135.77
21,Cc1csc2c(C3CCN(C(=O)c4cc[nH]n4)CC3)nc(C)n12 [CBK285245],124.287
22,Clc1ccc(Nc2nnns2)cc1Cl [CBK005211],99.0931
23,CCN(CC)C(=O)CN(CCc1ccc(OC)c(OC)c1)C(=O)NCCCSC [CBK158725],131.288
24,Cc1cc(C(=O)NCC[S+](C)[O-])c(-n2cccc2)s1 (stereo not drawn) [CBK283305],139.209
25,O=C(NC(=O)c1ccc2ccccc2c1)Nc1ccc(Br)cc1 [CBK261735],88.4172
26,C(=N\c1ccc2c(c1)OCCOCCOc1cc(/N=C/c3ccccc3)ccc1OCCOCCO2)/c1ccccc1 [CBK261388],108.266

row,SMILES,% of control remaining [%]
1,O=C(NCC1CCCO1)c1ccc(NC(=O)C2C3C=CC(C3)C2C(=O)O)cc1 (stereo not drawn) [CBK266317],102.137
2,CCn1c(C)c(C)n2c3c(=O)n(CCN4CCOCC4)c(=O)n(C)c3nc12 [CBK269786],145.909
3,Cc1nc(C(F)(F)F)ccc1C(=O)NCCn1ccnc1C [CBK281982],114.722
4,COc1cc(CN2CCN(Cc3ccccc3)CC2)cc([N+](=O)[O-])c1O [CBK261574],116.362
5,CC1(C)CC(NC2=CC(=O)CC2)CC(C)(C)N1 [CBK028997],110.841
6,CN(C)CCCN(Cc1ccc2ncccc2c1)Cc1ccco1 [CBK283197],106.078
7,N#CCc1c(-c2ccc(Br)cc2)nc2ccccn12 [CBK172896],109.179
8,CCN1CCN(Cc2nc3c([nH]2)c(=O)n(C)c(=O)n3C)CC1 [CBK269413],130.981
9,CN(CCN1CCCCC1=O)c1nccc(CCC(F)(F)F)n1 [CBK307218],122.045
10,CC(=O)N1CCc2cc(C)ccc2C12CCN(CCCOc1ccccc1)CC2 [CBK081064],159.684
11,CS(=O)(=O)NC1CCN(c2nc(C(F)(F)F)nc3ccsc23)CC1 [CBK304592],117.47
12,CCN(CC1CCOCC1)C(=O)Cn1c(C)cc(=O)c2ccccc21 [CBK307230],101.381
13,COc1cccc(C2(NC(=O)CCn3cccn3)CCCC2)c1 [CBK283660],102.107
14,O=C(c1csnn1)N1CCN(CCc2ccccc2)CC1 [CBK200228],134.821
15,COc1ccc(Br)c(C(=O)N(C)Cc2cnn(C)c2)c1 [CBK305142],159.54
16,Cn1c(N2CC[C@H](O)C2)nc2cc(C(=O)NCCn3cccc3)ccc21 [CBK307480],118.769
17,CCCN1CCC(=NNC(=O)c2c[nH]c3ccccc23)CC1 [CBK262597],105.415
18,O=C(O)C(c1c[nH]c2cc(F)ccc12)N1CCN(CC(=O)N2CCOCC2)CC1 (stereo not drawn) [CBK286825],143.976
19,O=C(COc1cccnc1)N1CCN(c2ncccn2)CC1 [CBK144521],65.0985
20,O=c1c2[nH]cc(-c3ccccc3)c2ncn1CCc1ccccc1 [CBK288025],133.289
21,CCNc1cc2ccccc2c(-c2cccc(C(F)(F)F)c2)n1 [CBK085772],86.0561
22,CCOC(=O)c1cnc2ccc(F)cc2c1N1CCN(C)CC1 [CBK304376],129.52
23,COc1ccc(CCCC(=O)Nc2c(C)nn(C)c2N2CCNCC2)cc1OC [CBK050252T],95.3056
24,O=C(c1ccno1)N1Cc2ccccc2C1 [CBK200327],80.0153
25,CC(CNCC1CCCO1)COc1cccc(Cl)c1 (stereo not drawn) [CBK058789],121.585

# In a second layout: results already given.
row | SMILES | % of control remaining [%]
3 | CCOC(=O)C1CCCN(C(=O)CCn2c(=O)oc3cc(Cl)ccc32)C1 (stereo not drawn) [CBK304516] | 128.937
4 | O=C(CCSCc1nc2sc3c(c2c(=O)[nH]1)CCC3)N1CCC1 [CBK304536] | 152.264
5 | COCCCN1C(=O)c2[nH]nc(-c3cc(C)c(C)cc3O)c2C1c1ccc(SC)cc1 (stereo not drawn) [CBK268884] | 74.1447
